Values from PubChem BioAssay AID1259424 (University of Nebraska Medical Center, 2018).

Aim: 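Rank knockdowns across the genome by resemblance to the KSR1 depletion profile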 (primary screen)
Cells: human HCT116 colon cancer cells
Reagents: siRNA pool against human genes, 50 nM
Measurement: 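Log2 levels of six mRNAs (branched-DNA multiplex), adjusted by two reference genes and the non-targeting median, then scored against the average KSR1 knockdown pattern as Pearson r and euclidean distance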
Direction: mean correlation with KSR1 profile and KSR1 correlation: higher = expression change more like KSR1 knockdown; mean distance from KSR1 profile: higher = expression change less like KSR1 knockdown
The deposit covers about 14,000 reagents; shown is a random part of them. 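Higher correlation or smaller distance means closer resemblance to KSR1 loss; control wells, including KSR1 knockdowns, recur on many plates.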 The record does not give: the time to read-out.

The first 2 entries, to show the layout:
Target gene,mean correlation with KSR1 profile,mean distance from KSR1 profile,"KSR1 correlation, replicate 1","KSR1 correlation, replicate 2","KSR1 correlation, replicate 3"
EPN3,-0.393,2.15,-0.34,-0.333,-0.392
CHMP3,-0.624,3.31,-0.603,-0.743,-0.582

Results, from the first entry:
Target gene,mean correlation with KSR1 profile,mean distance from KSR1 profile,"KSR1 correlation, replicate 1","KSR1 correlation, replicate 2","KSR1 correlation, replicate 3"
EPN3,-0.393,2.15,-0.34,-0.333,-0.392
CHMP3,-0.624,3.31,-0.603,-0.743,-0.582
GJB4,0.689,1.55,0.685,0.553,0.669
TMEM115,-0.0309,2.74,0.0244,-0.0238,-0.0494
PROX1,0.648,2.93,0.675,0.435,0.592
SLIT2,-0.263,2.34,-0.108,-0.258,-0.435
MX1,-0.547,2.43,-0.582,-0.518,-0.84
FSHR,0.518,2.46,0.513,0.5,0.0585
TRIM34,-0.617,2.6,-0.619,-0.526,-0.551
RRM1,0.347,3.1,0.451,0.263,0.306
RPS25,0.0128,2.77,-0.0855,-0.239,0.37
CHEK1,0.288,3,0.446,0.101,0.0525
SH3PXD2A,0.0445,3.16,-0.54,-0.232,0.519
PSMC6,-0.569,3.61,-0.388,-0.675,-0.585
ANG,0.813,1.92,0.748,0.4,0.834
MYOCD,0.358,1.45,0.101,0.402,0.331
WBP1L,-0.347,3.94,-0.22,-0.428,-0.392
DOCK4,0.0267,1.22,0.163,0.179,-0.0565
FSD1,0.504,2.16,0.483,0.484,0.6
MPZ,0.615,1.71,0.623,0.658,0.433
SNAPIN,-0.185,2.53,0.235,-0.397,-0.141
LSM4,-0.385,1.99,-0.422,0.00718,-0.561
RABAC1,0.643,1.15,0.499,0.76,0.729
ZFYVE9,-0.671,2.03,-0.543,-0.383,-0.808
PCDH7,-0.0962,2.23,-0.147,-0.229,-0.251
PCNX2,0.0905,2.21,0.0459,-0.0172,0.017
ARHGAP44,-0.526,2.93,-0.573,-0.615,-0.206
RNF144A,-0.193,1.98,-0.463,0.00552,-0.54
RNF138,-0.4,1.75,-0.521,-0.351,-0.174
ITGB2,-0.551,1.41,-0.579,-0.0632,-0.418
LRRC37A2,0.706,2.35,0.853,0.905,0.264
GPR171,0.711,2.12,0.515,0.703,0.704
SPATA1,0.756,0.672,0.634,0.381,0.732
SPATA31A7,-0.175,3.59,0.211,-0.46,-0.514
ALDH5A1,-0.241,2.6,-0.0431,-0.307,-0.138
GIPC2,-0.459,1.97,-0.153,-0.845,0.523
EEF1A1,0.213,1.36,0.357,0.0708,0.0223
FCSK,0.258,4.15,0.00654,0.292,0.196
PRM2,-0.55,4.7,-0.699,0.553,0.132
GNPNAT1,0.0937,1.11,-0.409,0.106,-0.171
RHNO1,0.839,1.06,0.75,0.797,0.73
SSR3,-0.158,1.76,-0.225,-0.206,-0.482
H2AC4,-0.422,3.31,-0.383,-0.418,-0.382
HNRNPAB,-0.196,1.45,-0.295,-0.28,-0.185
UBIAD1,-0.173,2.92,-0.12,-0.35,-0.489
ZNF211,-0.614,3.59,-0.526,-0.671,-0.605
MKRN4P,0.13,1.44,0.389,-0.094,0.123
PMAIP1,-0.569,2.59,-0.677,-0.556,-0.4
ZSCAN10,0.584,2.28,0.54,0.482,0.622
INPP5K,-0.0298,1.95,0.399,0.0433,0.141
